Reference: PubChem BioAssay AID652259 (Drosophila RNAi Screening Center, 2013)
The screen tested about 22,000 reagents; below is a random part of those with a known target gene and a result. In the full data, 233 (1.1%) got an active call. 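Light values are raw, unnormalised plate reads; the ratio scores behind the reporter calls were not deposited.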 Unmarked entries are inactive. Names joined by + are all predicted targets of the reagent. Not given: the amount of reagent, the time to read-out, the dose of the treatment.

- Aim: 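Identify new Wingless signalling regulators in fly cells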 (primary screen)
- System: Drosophila clone 8 imaginal disc epithelial cells
- Reagent: long dsRNA against Drosophila genes
- Conditions: pathway stimulated by co-transfected Wingless expression plasmid
- Measured: 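Firefly luciferase from a tcf-site Wingless reporter, measured alongside co-transfected Renilla luciferase that tracks transfection; pathway stimulated by a Wingless plasmid; the firefly-to-Renilla ratio is not deposited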
- Reading the numbers: firefly reporter light: higher = more Wg reporter light, before normalisation; Renilla control light: higher = more transfected or surviving cells
- Hit rule: 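a knock-down is a candidate when at least two out of four statistical tests show it departing from its plate mean; one test alone signals a weak candidate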
- Meaning of the calls: active = candidate regulator (raises or lowers reporter); inactive = not a candidate

The opening 4 entries, to show the layout:
target gene | amplicon | reporter change call, replicate 1 | firefly reporter light, replicate 1 | firefly reporter light, replicate 2 | Renilla control light, replicate 1 | Renilla control light, replicate 2
dpr18 (defective proboscis extension response 18) | DRSC19606 | – | 20993 | – | 8580 | –
CG4702 | DRSC15626 | – | 7984 | – | 2563 | –
Timp (Tissue inhibitor of metalloproteases) | DRSC17082 | – | 8029 | – | 3072 | –
CG10274 | DRSC09716 | – | 4228 | – | 1552 | –

Main list, repeating the preview:
target gene | amplicon | reporter change call, replicate 1 | firefly reporter light, replicate 1 | firefly reporter light, replicate 2 | Renilla control light, replicate 1 | Renilla control light, replicate 2
dpr18 (defective proboscis extension response 18) | DRSC19606 | – | 20993 | – | 8580 | –
CG4702 | DRSC15626 | – | 7984 | – | 2563 | –
Timp (Tissue inhibitor of metalloproteases) | DRSC17082 | – | 8029 | – | 3072 | –
CG10274 | DRSC09716 | – | 4228 | – | 1552 | –
CG32182 | DRSC09508 | – | 3858 | – | 1297 | –
Moe (Moesin) | DRSC18684 | – | 1280 | 7672 | 557 | 2145
Polr2K (RNA polymerase II, I and III subunit K) | DRSC05535 | – | 21349 | – | 12608 | –
E23 (Early gene at 23) | DRSC00425 | – | 2040 | 4231 | 316 | 397
E23 (Early gene at 23) | DRSC00593 | – | 2500 | 4320 | 995 | 1329
ast (asteroid) | DRSC00803 | – | 8562 | – | 3808 | –
CG30274 | DRSC04171 | – | 2742 | 8237 | 793 | 2778
CG32809 | DRSC18507 | – | 3810 | 9420 | 1869 | 4432
CG32809 | DRSC18592 | – | 2500 | 5060 | 1238 | 1713
CG1504 | DRSC20513 | – | 14528 | – | 811 | –
CG7131 | DRSC16203 | – | 3697 | 7115 | 1216 | 2829
CG11382 | DRSC18624 | – | 14613 | – | 9426 | –
CG34166 | DRSC02482 | – | 4981 | 8.63e5 | 1830 | 3.98e5
nes (nessy) | DRSC11375 | – | 12330 | – | 3483 | –
CG2871 | DRSC18230 | – | 30024 | – | 13925 | –
CG2871 | DRSC21719 | – | 4.77e5 | 5.46e5 | 2.45e5 | 1.92e5
CG14315 | DRSC14794 | – | 16432 | – | 4060 | –
CG31347 | DRSC21582 | – | 5.09e5 | 5.23e5 | 2.49e5 | 2.25e5
Mdr49 (Multi drug resistance 49) | DRSC07466 | Wg reporter activity lowered | 12427 | – | 4944 | –
CG42853 | DRSC09534 | – | 3483 | – | 1402 | –
CG32706 + CG6999 | DRSC18412 | – | 22875 | – | 15973 | –
CG7148 | DRSC11802 | – | 5207 | – | 2400 | –
VhaM9.7-b (Vacuolar H[+] ATPase M9.7 subunit b) | DRSC11841 | – | 14124 | – | 4922 | –
CG15878 | DRSC08486 | – | 6332 | – | 2642 | –
CG32091 | DRSC10141 | – | 9058 | – | 2304 | –
CG32091 | DRSC10820 | – | 8124 | – | 2885 | –
CG5359 | DRSC15780 | – | 10325 | – | 1843 | –
CG7304 | DRSC10804 | – | 7821 | – | 2561 | –
roh (reduction of Rh1) | DRSC04003 | – | 20924 | – | 8919 | –
Nuak (Nuak family kinase) | DRSC14414 | – | 14753 | – | 4167 | –
Nuak (Nuak family kinase) | DRSC14415 | – | 8499 | – | 2839 | –
Nuak (Nuak family kinase) | DRSC14416 | – | 15205 | – | 5376 | –
CG10949 | DRSC02112 | – | 7954 | – | 3336 | –
cathD (cathepsin D) | DRSC07588 | – | 2512 | 3377 | 411 | 2112
CG13016 | DRSC06271 | – | 7619 | – | 1581 | –
CG31462 (retired record) | DRSC14359 | – | 10649 | – | 3453 | –
CG4382 | DRSC02743 | – | 3729 | 6624 | 1177 | 3057
CG9068 | DRSC07329 | – | 5472 | – | 2800 | –
Obp73a (Odorant-binding protein 73a) | DRSC09907 | – | 8316 | – | 2963 | –
caz (cabeza) | DRSC20317 | – | 4498 | 9848 | 1108 | 3969
caz (cabeza) | DRSC22594 | – | 3.44e5 | 4.02e5 | 1.34e5 | 1.36e5
CG4866 | DRSC06899 | – | 5680 | – | 2922 | –
msd5 (mitotic spindle density 5) | DRSC08560 | – | 4016 | – | 1921 | –
CG42741 | DRSC04593 | – | 3621 | 10274 | 1116 | 3945
CG42741 | DRSC22045 | – | 9.66e5 | 1.03e6 | 5.38e5 | 5.12e5
ova (ovaries absent) | DRSC02879 | – | 14832 | – | 3481 | –
Pde8 (Phosphodiesterase 8) | DRSC04503 | – | 13600 | – | 3884 | –
CG33461 | DRSC22892 | – | 6.94e5 | 4.43e5 | 2.93e5 | 1.63e5
CG2100 | DRSC12303 | – | 7584 | – | 2567 | –
CG8860 | DRSC07291 | – | 8162 | – | 3053 | –
CG3984 | DRSC15530 | – | 19632 | – | 3347 | –
CG9044 | DRSC03130 | – | 5187 | – | 2976 | –
CG34115 | DRSC03840 | – | 27447 | – | 13584 | –
hh (hedgehog) | DRSC16965 | – | 19597 | – | 17104 | –
CG32086 | DRSC10586 | – | 4720 | – | 1861 | –
CG42758 | DRSC10021 | – | 5799 | – | 2919 | –
uzip (unzipped) | DRSC04722 | – | 9640 | – | 3798 | –
CheA7a (Chemosensory protein A 7a) | DRSC17965 | – | 17625 | – | 10464 | –
wuho | DRSC18101 | – | 15653 | – | 8368 | –
Acsf3 (Acyl-CoA synthetase family member 3) | DRSC18146 | – | 24064 | – | 13864 | –
CG10431 | DRSC02055 | – | 1835 | 7366 | 707 | 2852
CG14627 | DRSC18630 | – | 20769 | – | 9993 | –
CG3698 | DRSC11749 | – | 7794 | – | 3523 | –
CG1637 | DRSC18865 | – | 3047 | – | 795 | –
CG1637 | DRSC19748 | – | 1890 | 5360 | 746 | 1808
CG1637 | DRSC19749 | – | 15328 | – | 7440 | –
DAAM (Dishevelled Associated Activator of Morphogenesis) | DRSC18479 | – | 3424 | – | 817 | –
Wnk (Wnk kinase) | DRSC11813 | Wg reporter activity raised (active) | 15960 | – | 1911 | –
CG1792 | DRSC15290 | – | 15907 | – | 12456 | –
